Measured values reported in patent US20050123939.

Experiments:
NF-kB p50/p50 homodimer = molecular target: T1, NF-kB p50/p50 homodimer (UniProt P19838); test: SELEX; conditions: purified recombinant protein, protein details: Alexa Fluor 488 labeled, label: bead
T1 sequence (looked up, limits assumed): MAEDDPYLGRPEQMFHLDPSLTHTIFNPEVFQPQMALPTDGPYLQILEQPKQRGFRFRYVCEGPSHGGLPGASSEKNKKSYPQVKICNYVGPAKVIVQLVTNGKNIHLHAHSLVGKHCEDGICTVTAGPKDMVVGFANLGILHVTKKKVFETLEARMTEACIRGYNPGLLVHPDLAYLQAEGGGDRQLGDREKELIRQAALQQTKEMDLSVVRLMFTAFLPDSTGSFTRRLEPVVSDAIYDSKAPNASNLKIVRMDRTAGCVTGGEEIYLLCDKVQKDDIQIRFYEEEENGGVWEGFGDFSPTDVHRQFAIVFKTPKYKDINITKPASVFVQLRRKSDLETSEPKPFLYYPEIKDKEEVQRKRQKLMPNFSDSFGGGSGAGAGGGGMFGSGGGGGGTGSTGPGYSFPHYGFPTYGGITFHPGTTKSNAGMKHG

[1] = molecular target: T2, NF-kB p50 (unlabeled, detected by anti-NF-kB antibody) (UniProt P19838); test: binding assay; conditions: CITED earlier studies, purified recombinant protein
T2 sequence (looked up, limits assumed): T1 sequence (looked up, limits assumed)

[2] = molecular target: T2, NF-kB p50 (unlabeled, detected by anti-NF-kB antibody); test: SELEX; conditions: purified recombinant protein, label: bead
[3] = 3'-thioates as in Table 2, complement unmodified
[4] = 3'-dithioates as in Table 2, complement unmodified

AGTCAAGTCGAAGTTCCACGGT (double strand) [S-ODN selected 4]
selection result (NF-kB p50/p50 homodimer; [3]): selected

ATGTAGCCGAAGGTGGAACCCC (double strand) [S2-ODN selected 4]
selection result (NF-kB p50/p50 homodimer; [4]): selected

ATGTAGCCAGCTAGTCTGTCAG (double strand) [S2-ODN selected 1]
selection result (NF-kB p50/p50 homodimer; no dithioate linkages): selected

CGTCAAGTCTCAGTTCCCATTT (double strand) [S-ODN selected 3]
selection result (NF-kB p50/p50 homodimer; [3]): selected

CGCCAGCCAAAGGTGCTGTCAG (double strand) [S2-ODN selected 2]
selection result (NF-kB p50/p50 homodimer; [4]): selected

CGCCAGCCGAAGGTGGAACCCC (double strand) [S2-ODN selected 5]
selection result (NF-kB p50/p50 homodimer; [4]): selected

GGGGTTCCACCTTCACTGGGCG (double strand) [normal phosphate backbone version of 15th round clone]
binding result ([1]; no binding of normal phosphoryl backbone, cited from earlier work): no binding

ATGTAGCCAAAGGTGGAACCCC (double strand) [E008 selected 2]
selection result ([2]; 3'-dithioate at a10,g16,a17): selected

GGGGTTCCACCTTCACTGGGCG (double strand) [chemically synthesized p50 thioaptamer]
Kd ([1]; monothiophosphate 5' to each dA residue (diastereomeric mixture), diastereomeric mixture): < 0.02 µM

GGGGTTCCACCTTCACTGGGCG (double strand) [in vitro selected p50 thioaptamer clone (enzymatic)]
Kd ([1]; monothiophosphate 5' to each dA residue (chiral, enzymatic), apparent Kd, 15 rounds of selection): < 0.005 µM

CGCCCAGTAGCTAGTCTGTCAG (double strand) [E008 selected 4]
selection result ([2]; 3'-dithioate at c5): selected

CGCCCAGTGGCTAGTGAACCCC (double strand) [S2-ODN selected 3]
selection result (NF-kB p50/p50 homodimer; [4]): selected

CGCCAGCCGAAGGTGCTGTCAG (double strand) [E008 selected 1]
selection result ([2]; 3'-dithioate at a10): selected

AGTTGAGTCGAAGGACCCATTT (double strand) [S-ODN selected 2]
selection result (NF-kB p50/p50 homodimer; [3]): selected

CGCCCAGTGAAGGTGCTGTCAG (double strand) [E008 selected 3]
selection result ([2]; 3'-dithioate at c5,g9,a10): selected

For part of these data: No signal at the amounts used counts as a negative. Tags and fusion partners may be left off the protein sequences shown. Construct, isoform or probe ends are uncertain for at least one entry.
